{
  "source": "patent US20230348858",
  "key": {"[1]": {"biological_target": "Brg1 full-length (Mus musculus) (UniProt Q3TKT4)", "assay": "activity assay", "details": "m6A at A8, purified recombinant protein"}, "[2]": {"biological_target": "Brg1 helicase domain D1D2 (Mus musculus) (UniProt Q3TKT4)", "assay": "activity assay", "details": "m6A at A8; m6A demethylation of generic probe; purified recombinant protein; protein details: MBP fusion"}, "[3]": {"biological_target": "Brg1 D1D2 H1181A/D1183A H1181A,D1183A (FIG. 18 legend: H1173A/D1175A) (Mus musculus) (UniProt A7Z019)", "assay": "activity assay", "details": "m6A at A8; demethylation disabled; binding not measured; purified recombinant protein; protein details: MBP fusion"}, "[4]": {"biological_target": "Brg1 D2 subdomain (Mus musculus) (UniProt Q3TKT4)", "assay": "activity assay", "details": "m6A at A8; no demethylation; binding not measured; purified recombinant protein; protein details: MBP fusion"}, "[5]": {"biological_target": "T1, Snf2 helicase domain (Saccharomyces cerevisiae) (UniProt P22082)", "T1 sequence (looked up)": "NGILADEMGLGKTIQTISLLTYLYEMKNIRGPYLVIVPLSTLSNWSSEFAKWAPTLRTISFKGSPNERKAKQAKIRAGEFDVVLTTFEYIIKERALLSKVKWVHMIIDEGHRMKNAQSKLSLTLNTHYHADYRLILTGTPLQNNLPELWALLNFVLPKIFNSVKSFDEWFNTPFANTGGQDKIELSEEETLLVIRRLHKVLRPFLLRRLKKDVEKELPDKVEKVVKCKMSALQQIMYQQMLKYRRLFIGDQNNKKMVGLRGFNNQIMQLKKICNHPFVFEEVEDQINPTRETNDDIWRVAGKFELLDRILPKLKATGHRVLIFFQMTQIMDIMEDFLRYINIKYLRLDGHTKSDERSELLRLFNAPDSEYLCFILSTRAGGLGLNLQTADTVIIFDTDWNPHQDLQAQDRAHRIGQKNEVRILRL", "assay": "activity assay", "details": "m6A at A8; m6A demethylation of m6A-Bmp10 probe; purified recombinant protein; protein details: MBP fusion"}, "[6]": {"biological_target": "MBP (maltose binding protein) (UniProt P0AEX9)", "assay": "activity assay", "details": "m6A at A8; negative control in demethylation assay; purified recombinant protein; protein details: pMAL vector control, listing gives SEQ 27"}, "[7]": {"biological_target": "Brg1 D1D2 R973Q (Mus musculus) (UniProt A7Z019)", "assay": "activity assay", "details": "m6A at A8; demethylation abolished; binding not measured; purified recombinant protein; protein details: MBP fusion"}, "[8]": {"biological_target": "Brg1 D1 subdomain (Mus musculus) (UniProt Q3TKT4)", "assay": "activity assay", "details": "m6A at A8; no demethylation; binding not measured; purified recombinant protein; protein details: MBP fusion"}, "[9]": {"biological_target": "Brg1 helicase domain D1D2 (Mus musculus) (UniProt Q3TKT4)", "assay": "EMSA", "details": "preferentially bound m6A probe but not the unmethylated version; purified recombinant protein; protein details: MBP fusion; label: 5'-biotin"}},
  "note": "For some of these results: Negatives hold for the conditions tested. For some of these results: Tags and fusion partners may be left off the protein sequences shown. For some of these results: Construct, isoform or probe ends are uncertain for at least one entry.",
  "data": [
    {"sequence": "AUUGUCAACAGCAGC [generic m6A RNA probe]", "values": [
      {"measurement": "activity on this sequence", "setting": "[1]; m6A demethylation of generic probe", "value": "active"},
      {"measurement": "activity on this sequence", "setting": "[2]", "value": "active"}
    ]},
    {"sequence": "CGGUUGUACACGCUG [m6A-Bmp10 15-mer probe]", "values": [
      {"measurement": "activity on this sequence", "setting": "[3]", "value": "not active"},
      {"measurement": "activity on this sequence", "setting": "[1]; m6A demethylation, dot blot", "value": "active"},
      {"measurement": "activity on this sequence", "setting": "[4]", "value": "not active"},
      {"measurement": "activity on this sequence", "setting": "[5]", "value": "active"},
      {"measurement": "activity on this sequence", "setting": "[6]", "value": "not active"},
      {"measurement": "activity on this sequence", "setting": "[7]", "value": "not active"},
      {"measurement": "activity on this sequence", "setting": "[8]", "value": "not active"}
    ]},
    {"sequence": "UCGUCAUGGCUGAACUGCGGUUGUACACGCUGGUGCAGAGAGAUCGCAU [Bmp10 RNA control probe unmethylated]", "values": [
      {"measurement": "binding result", "setting": "[9]", "value": "no binding"}
    ]}
  ]
}
